# Measured data: PubChem BioAssay AID602196 (INSERM, 2012)
# Screen: 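Knock-downs that protect lung cancer cells from cisplatin or sensitise them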
# Cells: human A549 lung cancer cells
# Knock-down reagent: siRNA pair against human genes
# Duration: 48 h transfection before cisplatin; time from cisplatin to read-out not stated
# Treatment: cisplatin at a dose killing half of control-siRNA cells; exact dose and duration not given
# Detection: 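Shift in cisplatin death relative to control siRNA, from -50 (all cells die) to +50 (no cells die); siRNAs harmful on their own scored 0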
# Direction: two-siRNA summed score (-2 to +2): higher = both siRNAs protect from cisplatin killing; -2 means both sensitise; mean protection from cisplatin (shift in death) and protection from cisplatin (shift in death), siRNA C and protection from cisplatin (shift in death), siRNA D: higher = protection from cisplatin killing
# Hit rule: 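Each siRNA scores 0 if harmful alone by LDH or WST-1, otherwise +1 if it reduces and -1 if it increases cisplatin killing; a gene is active when both siRNAs agree (sum +2 or -2)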
# Calls: active = both siRNAs shift cisplatin killing the same way; inactive = no consistent shift, or siRNA harmful alone
# Shown is one part, drawn at random, of about 23,000 reagents. In the full data, 455 (2%) got an active call. 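Active includes both protection and sensitisation; some change values fall well beyond the stated -50 to +50 range.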 Entries without a mark were called inactive. The record does not give: the amount of reagent.
gene,two-siRNA summed score (-2 to +2),mean protection from cisplatin (shift in death) (%),"protection from cisplatin (shift in death), siRNA C (%)","protection from cisplatin (shift in death), siRNA D (%)"
ZNF557,0,2.4,-4,8.8
ZNF586,0,3.6,3.7,3.5
LOC148756,0,0.9,-9.4,11.3
LOC441689,1,10.7,15.1,6.2
AWAT2,0,-3.5,4,-10.9
C1orf74,0,-2.5,-9,4
RRAGA,0,5.4,3.8,7.1
NAT10,0,7.8,15.1,0.5
SMC6,0,-3.1,-12.3,6.2
CLOCK,0,-3.5,-5.7,-1.2
C10orf120,0,3.3,9,-2.5
ADIG,0,6.9,1.3,12.4
MRPS9,0,7.6,15.8,-0.5
DSE,0,2.6,11.1,-5.8
DHX58,2 (active),25.2,23.5,26.8
LOC440949,0,20.2,26,14.5
HOXA10,1,6.2,12.5,0
LOC441364,0,9.6,8.8,10.4
MGC17403,1,12.1,10.9,13.2
VCAN,-1,-4,2.2,-10.2
CSTA,0,1.7,10.1,-6.6
LOC441079,0,8.7,5.8,11.7
ZBED1,0,15.8,37.5,-6
ITGA11,-1,-5.9,-16.3,4.4
REPS1,0,8.9,13.6,4.1
ATE1,1,6.3,-2.6,15.2
LOC391003,1,12.4,16.1,8.7
LOC441787,1,7.6,10.9,4.3
EFCAB14,1,13.6,12,15.3
DOK7,0,8.4,-15.1,31.9
LOC283166,0,0.7,-3.5,4.9
PTGDS,1,9.1,-4.9,23
FAM106B,0,7.8,9.5,6
LOC442705,0,-0.8,-4.9,3.2
SHANK3,0,-3,1.8,-7.8
OR4D10,1,14.6,20.2,9.1
OR52P2P,0,-16.8,-5.9,-27.6
MCOLN3,0,16.9,15.9,18
SLC39A3,1,12.4,20.3,4.5
